Experimental data taken from PubChem BioAssay AID2685 (National Center for Advancing Translational Sciences (NCATS), 2010).
This is one part of the list. Further columns of the screen follow, without active or inactive calls. Most of these compounds were active or inconclusive in the main read-out, so they are no random draw. Words in brackets tell the shape of the fitted curve; partial curves, single points and poor fits give uncertain potencies.

Assay: qHTS Assay for Lipid Storage Modulators in Drosophila S3 Cells;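 for cell number change: cells counted by Cell Tracker Red CMTPX staining in the red channel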
Conditions: BODIPY lipid droplet fluorescence, 18-24 h; for cell number change: measured here: cell count max response, cells fed with added oleic acid
Method in brief: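 Laser-scanning cytometry quantifies lipid droplet accumulation (500–530 nm total intensity; droplet/cell object ratio) in oleic acid-fed (400 uM added) Drosophila S3 cells treated with a concentration series. 20 uM Triacsin C defined 100% inhibition.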

[1] = measured here: cell number channel AC50, cells fed with added oleic acid
[2] = measured here: lipid fluorescence (Fed channel) AC50, cells fed with added oleic acid

SMILES | AC50 [1] | cell number change [%] | AC50 [2]
COc1ccc(OC)c(NC2c3ccccc3C(=O)N2Cc2ccc3c(c2)OCO3)c1 (stereo unspecified) | 1.46 µM [rising, partial curve] | – | –
CCN1CCN(c2cc(-c3ccccc3)nc3cc(-c4cccc(F)c4)nn23)CC1 | 29.1 µM [falling, single point] | -75.3 | 29.1 µM [falling, single point]
Cc1cc(-c2ccccc2)nc(N/N=C/c2ccc(O)cc2)n1 | – | -16.4 | 29.1 µM [falling, single point]
CC(C)OC(=O)CSc1nnc2n1C(C)(C)Cc1ccccc1-2 | 29.1 µM [rising, single point] | 68.2 | 23.1 µM [rising, single point]
N#Cc1ccccc1NC(=O)c1ccc(-c2ccccc2Cl)o1 | 25.9 µM [falling, single point] | -46.1 | –
COc1ccc(CCC(C)NCc2ccc(Cl)c(Cl)c2)cc1 (stereo unspecified) | – | -18.5 | 0.58 µM [rising, single point]
COc1cccc(NC(=O)Cc2nnc(SCC(=O)NC3CCCC3)n2C)c1 | – | 22.5 | –
COc1ccc(CNC(=S)NCc2ccc(F)cc2)cc1 | 0.92 µM [rising, full curve, poor fit] | 22 | –
CCOc1ccccc1NC(=S)N1CCN(c2ccc(O)cc2)CC1 | – | 7.09 | –
CCN(CC)c1ccc(/C=C2/SC(=O)N(C(C)C)C2=O)o1 | 29.1 µM [falling, single point] | -77.2 | 29.1 µM [falling, single point]
Cc1nn(C(C)C(=O)Nc2ccccc2Cl)c(=O)c2nn(-c3ccccc3)c(C)c12 (stereo unspecified) | 0.411 µM [rising, partial curve] | 32.7 | –
COc1cccc2sc(=NC(=O)CS(=O)(=O)c3ccc(F)cc3)n(C)c12 | – | – | 0.0731 µM [rising, full curve, poor fit]
Cn1c(=O)n(CCc2ccccc2)c(=O)c2c1nc1n2CCCN1Cc1ccccc1 | – | 11.6 | –
N#CC1(NC(=O)CN2CCc3ccccc3C2)CCCC1 | 23.1 µM [falling, single point] | -64 | –
CC1CC(C)CN(S(=O)(=O)c2ccc(NC(=O)CCN3C(=O)C4CC=CCC4C3=O)cc2)C1 (stereo unspecified) | – | 15.8 | –
Cc1ccccc1-c1cc(C(=O)NCc2ccc3c(c2)OCO3)n(CC2CC(c3cccnc3)=NO2)n1 (stereo unspecified) | – | -8.15 | 1.16 µM [rising, single point]
COc1ccc2oc(C(=O)NCc3ccccc3CN3CCCC3)c(C)c2c1 | – | -18.3 | 5.17 µM [falling, partial curve, poor fit]

Arranged by formula weight (rising): three of the compounds above.
SMILES | AC50 [1] | cell number change [%] | AC50 [2]
CCOc1ccccc1NC(=S)N1CCN(c2ccc(O)cc2)CC1 | – | 7.09 | –
CC1CC(C)CN(S(=O)(=O)c2ccc(NC(=O)CCN3C(=O)C4CC=CCC4C3=O)cc2)C1 (stereo unspecified) | – | 15.8 | –
Cc1ccccc1-c1cc(C(=O)NCc2ccc3c(c2)OCO3)n(CC2CC(c3cccnc3)=NO2)n1 (stereo unspecified) | – | -8.15 | 1.16 µM [rising, single point]
